# From patent publication US5620959A (Glaxo Wellcome Inc., priority 1990, dated 1997)
# Experiment: general procedure: Boc solid-phase peptide synthesis; p-methylbenzhydrylamine (MBHA) resin, Advanced Chemtech, 0.90-0.97 meq/g; BOP, 4-Methylmorpholine
# Details: purification step, based on HPLC
substance,measurement,value
PEPTIDE1{[PhPr].H.W.A.V.[dA].H.[D-Propsi].F.[am]}$$$$V2.0,step yield,12% yield based on HPLC

# Strings that start with PEPTIDE1 are HELM notation: dots part the residues, brackets hold end groups and non-standard residues.
